Experimental data from PubChem BioAssay AID528 (NMMLSC, 2006).
Fewer than 10 of roughly 24,000 compounds were called active. Inconclusive results, whose numbers are uncertain, are shown with a selection of clear calls.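 Rule for the calls: active = fluorescent ligand binding to cells raised by more than 40% of the manganese-induced maximum; inconclusive = compound's own fluorescence above 85% of the ligand control signal; inactive = the rest.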

Sequences of proteins named here, by UniProt entry; tags and fusion partners are left off.
UniProt P13612, whole entry, looked up: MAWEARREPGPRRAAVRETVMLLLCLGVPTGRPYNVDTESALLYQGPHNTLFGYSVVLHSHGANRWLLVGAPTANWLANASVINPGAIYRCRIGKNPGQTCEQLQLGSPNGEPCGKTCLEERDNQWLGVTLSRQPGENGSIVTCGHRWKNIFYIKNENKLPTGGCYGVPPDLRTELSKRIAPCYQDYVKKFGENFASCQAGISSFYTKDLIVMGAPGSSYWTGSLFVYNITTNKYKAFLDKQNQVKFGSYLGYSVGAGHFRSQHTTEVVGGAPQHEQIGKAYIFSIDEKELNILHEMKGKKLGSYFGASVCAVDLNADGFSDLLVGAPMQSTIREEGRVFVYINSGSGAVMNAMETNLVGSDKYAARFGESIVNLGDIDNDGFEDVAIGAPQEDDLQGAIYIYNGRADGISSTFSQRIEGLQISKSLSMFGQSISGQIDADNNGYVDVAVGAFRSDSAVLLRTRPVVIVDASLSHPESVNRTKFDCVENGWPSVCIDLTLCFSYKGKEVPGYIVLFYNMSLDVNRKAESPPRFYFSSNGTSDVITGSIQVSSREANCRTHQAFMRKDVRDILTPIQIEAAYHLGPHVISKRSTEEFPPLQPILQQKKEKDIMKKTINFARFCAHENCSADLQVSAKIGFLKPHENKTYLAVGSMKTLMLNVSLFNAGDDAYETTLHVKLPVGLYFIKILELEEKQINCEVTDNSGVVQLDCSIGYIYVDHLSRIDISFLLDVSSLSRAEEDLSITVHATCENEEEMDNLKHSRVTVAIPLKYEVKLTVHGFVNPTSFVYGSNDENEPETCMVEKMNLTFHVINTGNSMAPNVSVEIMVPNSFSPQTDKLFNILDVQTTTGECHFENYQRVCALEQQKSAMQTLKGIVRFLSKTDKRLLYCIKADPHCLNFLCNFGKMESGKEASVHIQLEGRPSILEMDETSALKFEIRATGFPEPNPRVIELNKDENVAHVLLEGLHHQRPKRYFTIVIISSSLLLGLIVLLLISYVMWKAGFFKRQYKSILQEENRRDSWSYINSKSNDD

Each compound was assayed against Integrin alpha-4 (Homo sapiens) (UniProt P13612) (assay: enhancers of LDV-FITC binding to VLA-4 integrin, primary screen, Jurkat cells, flow cytometry (AID 528;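 for activation: 0% = ligand binding without compound and 100% = manganese-stimulated maximal binding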)). Settings: active compounds read high, screened at 10 µM (by protocol).

Row | Compound | activation
1 | Cn1c(=O)[nH]c(=O)c2c1nc(N1CCCC1)n2CC(O)COc1ccccc1 (stereo not drawn) | inconclusive
2 | O=C(Cc1ccc(-n2cccc2)cc1)NCc1cccs1 | inactive: -7%
3 | O=C(Cn1nc(-c2ccccc2)ccc1=O)NCc1ccc2c(c1)OCO2 | inconclusive
4 | COc1ccc(S(=O)(=O)N2CCCN(CC(=O)Nc3ccc(OC)c(Cl)c3)CC2)cc1 | inconclusive
5 | CC(C)c1ccc(O)c(NC(=O)c2ncn[nH]2)c1 | inconclusive
6 | CCCCNC(=O)c1ccc(CS(=O)(=O)c2ccc(OC)cc2)o1 | inactive: -3%
7 | COc1ccc(OC)c(NC(=O)CN(c2ccc(C(C)C)cc2)S(=O)(=O)c2c(C)noc2C)c1 | inconclusive
8 | CCOC(=O)c1nnn(-c2nonc2N)c1CSc1ccccn1 | inactive: -3.5%
9 | O=C(CSc1nccn1-c1ccc(F)cc1)Nc1ccc2c(c1)OCO2 | inconclusive
10 | CC(CCc1ccccc1)NC(=O)C1CCCN(C(=O)c2cc3sccc3n2C)C1 (stereo not drawn) | inconclusive
11 | CCCS(=O)(=O)N1CCCC(C(=O)N2CCN(c3ccccc3)CC2)C1 (stereo not drawn) | inactive: 0%
12 | COc1ccc2cc3cc(C(=O)Nc4ccc5c(c4)OCO5)oc3nc2c1 | inconclusive
13 | O=C(CCC1CCCC1)c1c(O)c2ccccc2oc1=O | inconclusive
14 | CCOc1cccc(NC(=O)C2CC(=O)N(C)C(=Nc3cccc(F)c3)S2)c1 (stereo not drawn) | inactive: -1%
15 | COc1ccc(NC(=O)Cn2nnc(C(=O)NCc3cccc(OC)c3)c2N)cc1 | inconclusive
16 | COc1ccc2cc3cc(C(=O)NCCN4CCc5ccccc5C4)oc3nc2c1 | inconclusive
17 | COc1cc(C(=O)NCCC(=O)NC2CCCCCCC2)cc(OC)c1OC | inconclusive
18 | Cc1ccc(-c2noc(CCC(=O)Nc3cccc(C#N)c3)n2)cc1 | inconclusive
19 | CC(C)Oc1cccc(-c2cc(C(=O)N3CCN(S(C)(=O)=O)CC3)c3ccccc3n2)c1 | inconclusive
20 | COc1ccc(CSCCN)cc1Cl | inconclusive
21 | COc1nc(-c2ccc(Cl)cc2)ccc1-c1noc(-c2ccncc2)n1 | inactive: 0%

Row | Compound | activation
22 | CCOc1ccccc1-n1c(SCC(=O)NC(C)CC)nnc1-c1ccoc1C (stereo not drawn) | inactive: -5.5%
23 | Cn1cccc1Cc1nnc(SCC(=O)NCc2ccccc2)n1-c1ccc(F)cc1 | inconclusive
24 | CC(C)n1c(=NC(=O)c2ccco2)c(C#N)cc2c(=O)n3ccccc3cc21 | inactive: 0%
25 | COCc1cc(C)c2c(N)c(C#N)sc2n1 | inactive: 4.3%
26 | O=C(O)CCCC(=O)N1CCN(c2nc(-c3ccccc3)c3ccccc3n2)CC1 | inconclusive
27 | Cc1cc(C)nc(NS(=O)(=O)c2ccc(Br)s2)c1 | inconclusive
28 | COc1ccc2nc(SCC(=O)Nc3ccc4c(c3)OCCO4)[nH]c2c1 | inconclusive
29 | COc1ccc(OC)c(Nc2cc(-c3ccccc3)nc(N)n2)c1 | inactive: 1%
30 | O=C(Cc1ccc(-n2cccc2)cc1)NC1CCCCC1 | inconclusive
31 | CC(=O)NC(CCS(C)(=O)=O)C(=O)Nc1ccc(C)c(F)c1 (stereo not drawn) | inconclusive
32 | CCOc1cc(/C=N/n2cnnc2)c(Br)cc1O | inactive: 9%
33 | COc1ccc(NC(=O)CCn2cccc2)cc1 | inactive: 8%
34 | COC(=O)c1cc2sccc2n1Cc1nc(-c2ccc(OC)cc2)oc1C | inconclusive
35 | COc1ccc(-n2c(Cn3c(=O)sc4ccccc43)nnc2SC)cc1 | inconclusive
36 | CC(C)(CC(=O)N1CCN(c2ccc(Cl)cc2)CC1)CC1=NS(=O)(=O)c2ccccc2N1 | inactive: 3%
37 | COc1cccc(-c2nc(CS(=O)CC(=O)NCc3ccccc3)c(C)o2)c1 (stereo not drawn) | inconclusive
38 | O=C(Nc1ccc(-n2nncc2-c2ccco2)cc1)c1cccc(F)c1 | inconclusive
39 | O=C(OCCN=C1NS(=O)(=O)c2ccccc21)C1CC(=O)N(c2ccc(Cl)cc2)C1 (stereo not drawn) | inactive: -4%
40 | CCN(CC)C(=O)c1sc2nc(-c3ccc(OC)cc3)cn2c1C | inconclusive
41 | Cc1cc(NC(=O)c2noc3c2CCc2ccccc2-3)no1 | inconclusive
42 | Cc1ccccc1CSc1nc2n(n1)C(c1cccs1)C1=C(CCCC1=O)N2 (stereo not drawn) | inconclusive

Single entries from the entries so far.
Entry for `O=C(Cc1ccc(-n2cccc2)cc1)NC1CCCCC1` under activation: inconclusive
Entry for `COc1ccc2cc3cc(C(=O)NCCN4CCc5ccccc5C4)oc3nc2c1` under activation: inconclusive
Entry for `CC(=O)NC(CCS(C)(=O)=O)C(=O)Nc1ccc(C)c(F)c1` (stereo not drawn) under activation: inconclusive
Entry for `O=C(Nc1ccc(-n2nncc2-c2ccco2)cc1)c1cccc(F)c1` under activation: inconclusive

The list continues:

Row | Compound | activation
43 | COc1ccccc1CC1(C)NC(=O)N(CC(=O)Nc2cc(C)on2)C1=O (stereo not drawn) | inactive: 4.5%
44 | N#CC1=C(N)N(c2ccccc2C#N)C2=C(C(=O)CCC2)C1c1ccsc1 (stereo not drawn) | inconclusive
45 | Cc1cccc(N2CCN(C(=O)Cc3c(C(=O)O)[nH]c4ccc(Cl)cc34)CC2)c1C | inactive: 4%
46 | Cc1ccc(-c2cn3nc(C)c(C)nc3n2)cc1 | inconclusive
47 | COc1ccc(-c2noc(CCC(=O)Nc3ccc4c(c3)OCCO4)n2)cc1 | inconclusive
48 | Cc1ccc(C)c2[nH]c(=O)c(CCNC(=O)c3ccc4c(c3)OCO4)cc12 | inconclusive
49 | Cc1cc(Nc2ccc(C(C)C)cc2)n2ncnc2n1 | inconclusive
50 | Cn1c(=O)cc(OCCCC(=O)N2CCN(c3ccccn3)CC2)c2ccccc21 | inactive: -10%
51 | Cc1ccc(C(c2sc3nc(C)nn3c2O)N2CCN(c3ccccc3)CC2)cc1 (stereo not drawn) | inconclusive
52 | O=C(NCc1cccnc1)c1ccc2c(c1)OCO2 | inconclusive
53 | Cc1ccc(C2C(=O)N(C3CCC(C)CC3)CC(=O)N2C2CC2)cc1 (stereo not drawn) | inactive: -2%
54 | COc1ccccc1NC(=O)CCn1c(=O)sc2ccccc21 | inactive: -4%
55 | O=c1c(-c2ccccc2)coc2c(CN3CCOCC3)c(O)ccc12 | inactive: 9.5%
56 | O=C(CSc1oc(-c2ccccc2)nc1S(=O)(=O)c1ccc(F)cc1)NCC1CCCO1 (stereo not drawn) | inconclusive
57 | CCN1CCN(C(=O)c2cc3c(-c4ccc(Cl)cc4)nn(C)c3s2)CC1 | inconclusive
58 | CCOc1cc(C2CC(=O)NC3=C2C(=O)C(C(=O)OC)C(C)C3)cc(Cl)c1O (stereo not drawn) | inconclusive
59 | Cc1ccccc1-c1nc(CN2CCC(C(=O)NCCCN3CCCC3)CC2)c(C)o1 | inactive: 0.3%
60 | Cc1nc2c(C(=O)N3CCN(c4ccccn4)CC3)cnn2c(C)c1Cc1cccc(Cl)c1 | inconclusive
61 | O=C(NCC1CCCO1)C1CCN(c2ccc(S(=O)(=O)N3CCCC3)cc2)CC1 (stereo not drawn) | inconclusive
62 | CCCC(=O)N1CCN(S(=O)(=O)c2cc(Cl)ccc2OC)CC1 | inactive: 4%
63 | Cc1ccccc1Nc1nn2c(=O)c3ccccc3nc2s1 | inconclusive
